Experimental data reported in PubChem BioAssay AID504444 (National Center for Advancing Translational Sciences (NCATS), 2011).
In all, about 360,000 compounds went through this assay and about 7,500 (2.1%) were called active. The inconclusive results got no clear call from the source; some entries with a clear call stand among them for comparison. Calls follow the shape of the dose curve; as a rule, active = well fitted inhibition curve with a large enough effect; inconclusive = small, poorly fitted or top-dose-only effect, or effect the other way; inactive = flat fitted curve, though single readings scatter. Potencies beside an inconclusive call are fits to weak or partial responses and may not hold up.

Experiment: Nrf2 qHTS screen for inhibitors; also: nearly all actives have a fitted effect of over 60% in size
Conditions: A549 ARE-Fluc reporter, luciferase luminescence, 18-24 h; series mostly up to 46 µM
Outline: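 A549 ARE_Fluc cells (5000/well, 5% FBS OPTI-MEM) pre-incubated 2 h, then treated with compounds 18-24 h at 37C/5% CO2 in concentration-response. CellTiter-Fluor viability read first; BugLite luciferase luminescence after 15 min at room temperature gives Nrf2 activity.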
Potency is read from the fitted curve at half-maximal effect.

Q: With `COc1ccc(OC)c(C2CC(=O)Nc3n[nH]c(-c4ccccc4)c32)c1` (stereo not given) as the compound, how does the Potency read?
A: inconclusive: 9.2 µM [falling, partial curve, poor fit]

Q: With `CCCCCC(=O)Nc1ccc(S(=O)(=O)Nc2ccc(Cl)nn2)cc1` as the compound, how does the Potency read?
A: inconclusive: 32.6 µM [falling, single point]

Q: Which Potency does the source give for `CCOC(=O)N1CCN(S(=O)(=O)c2ccc3c(c2)SC(C)C(=O)N3)CC1` (stereo not given) here?
A: inconclusive: 18.4 µM [falling, partial curve, poor fit]

Q: With `COc1ccc(C(C)NS(=O)(=O)Cc2ccccc2)cc1` (stereo not given) as the compound, how does the Potency read?
A: inconclusive: 0.92 µM [falling, partial curve, poor fit]

Q: With `CCN(CC)S(=O)(=O)c1ccc(OC)c(NC(=O)CSCc2c(C)noc2C)c1` as the compound, how does the Potency read?
A: inconclusive: 4.61 µM [activator, partial curve, poor fit]

Q: Which Potency does the source give for `Cc1ccc2nc(NC(=O)CSc3nncc(=O)n3N)sc2c1` here?
A: inactive

Q: With `CC(=O)N1c2ccc(S(=O)(=O)NCC3CCC(C(=O)Nc4cc(C)ccn4)CC3)cc2CC1C` (stereo not given) as the compound, how does the Potency read?
A: active: 23.1 µM

Q: With `C=CCN1C(=O)CS/C1=N\N=C\c1cccc([N+](=O)[O-])c1` as the compound, how does the Potency read?
A: inconclusive: 4.11 µM [activator, partial curve, poor fit]

Q: For `O=C(Nc1ccc(OC(F)F)cc1)c1ccccn1`, which Potency is on record?
A: inconclusive: 20.6 µM [activator, partial curve, poor fit]

Q: With `CC1CCCCN1CCCNC(=O)C1CCN(c2nnc(-n3cccc3)s2)CC1` (stereo not given) as the compound, how does the Potency read?
A: inconclusive: 0.366 µM [activator, full curve, poor fit]

Q: Which Potency does the source give for `CCOC(=O)[C@@H]1[C@H]2COc3cc(OC)ccc3[C@@H]2N2C(=O)N(c3ccc(F)cc3)C(=O)[C@@]12C` here?
A: inactive

Q: Which Potency does the source give for `NC(=O)NC(=O)CSc1nc2cc([N+](=O)[O-])ccc2n1-c1cccc(C(F)(F)F)c1` here?
A: inconclusive: 10.3 µM [falling, partial curve, poor fit]

Q: Which Potency does the source give for `CCCCCCCOC(=O)c1ccc(OC(=O)c2cccnc2)cc1` here?
A: inconclusive: 23.1 µM [falling, single point]

Q: Which Potency does the source give for `O=C(CSc1cccc(C(F)(F)F)c1)NCc1ccccc1` here?
A: inconclusive: 0.461 µM [falling, full curve, poor fit]

Q: Which Potency does the source give for `COc1ccc(O)c(/C=N/NC(=O)CCC(=O)Nc2ccc(F)cc2)c1` here?
A: inconclusive: 6.51 µM [falling, single point]

Q: With `COc1ccccc1NC(=S)N(Cc1cccnc1)Cc1ccco1` as the compound, how does the Potency read?
A: inconclusive: 0.58 µM [falling, partial curve]

Q: With `CC1=NCCN1CCNC(=O)Nc1ccc(C(C)(C)C)cc1` as the compound, how does the Potency read?
A: inactive

Q: Which Potency does the source give for `COc1ccccc1NC(=O)Cn1cnc2c(nc3n2CCCCC3)c1=O` here?
A: inconclusive: 29.1 µM [activator, single point]

Q: With `CCOCC(=O)Nc1ccc(S(=O)(=O)N2CCC(c3nc4ccccc4[nH]3)CC2)cc1` as the compound, how does the Potency read?
A: inconclusive: 29.1 µM [falling, single point]

Q: Which Potency does the source give for `Cn1c(=O)c2c(nc(OCc3cccnc3)n2Cc2c(F)cccc2Cl)n(C)c1=O` here?
A: inactive

Q: Which Potency does the source give for `O=C1c2ccccc2C(=O)N1Cc1nc(-c2ccccn2)no1` here?
A: inconclusive: 29.1 µM [activator, single point]

Q: For `COc1cc2c(cc1NC(=O)Nc1ccc(C)cc1)oc1ccccc12`, which Potency is on record?
A: inactive

Q: With `CC1CCN(S(=O)(=O)c2ccc3c(c2)c(=O)c(C(=O)NCc2ccc(Cl)cc2)cn3C)CC1` as the compound, how does the Potency read?
A: inactive

Q: Which Potency does the source give for `CCOC(=O)c1cnn(CC2CCCCC2)c1N` here?
A: inconclusive: 10.3 µM [activator, partial curve, poor fit]

Q: Which Potency does the source give for `O=C(Nc1cccc(Cl)c1)N1CCN2C(=O)c3ccccc3C12c1ccccc1` (stereo not given) here?
A: active: 20.6 µM

Q: With `CC(=O)c1ccc(N2CCN(c3ccccc3O)CC2)c([N+](=O)[O-])c1` as the compound, how does the Potency read?
A: inactive

Q: For `COc1ccc(NC(=O)c2cccc(NC(=O)c3ccccc3)c2)cc1`, which Potency is on record?
A: inactive

Q: For `COc1ccccc1NC(=O)c1oc2ccccc2c1NC(=O)C(C)C`, which Potency is on record?
A: inactive

Q: Which Potency does the source give for `COc1ccc(C(=O)NNC(=O)C(=O)Nc2ccc(C)c(Cl)c2)cc1` here?
A: active: 5.8 µM

Q: With `O=C(Nc1ccc(OCC(F)(F)C(F)F)c(C(F)(F)F)c1)c1ccccc1` as the compound, how does the Potency read?
A: inconclusive: 25.9 µM [falling, single point]

Q: Which Potency does the source give for `O=C(NCCc1ccco1)c1ccc(OCc2cn3ccccc3n2)cc1` here?
A: inactive

Q: For `COCCCn1c(C(=O)N2CCOCC2)cc2c(=O)n3cccc(C)c3nc21`, which Potency is on record?
A: inactive

Q: Which Potency does the source give for `O=C(O)c1ccccc1Nc1ccccc1` here?
A: inactive

Q: With `Cc1csc(NC(=O)c2ccc(C)c(S(=O)(=O)N3CCCCC3)c2)n1` as the compound, how does the Potency read?
A: inconclusive: 6.51 µM [falling, full curve]

Q: With `Cc1onc(-c2ccccc2Cl)c1C(=O)OCC(=O)Nc1cccc(S(=O)(=O)N2CCOCC2)c1` as the compound, how does the Potency read?
A: active: 18.4 µM

Q: For `CCOc1ccccc1NC(=O)CCSc1nc2n[nH]c(C)c2c(=N)n1-c1ccccc1Cl`, which Potency is on record?
A: inconclusive: 1.64 µM [falling, partial curve, poor fit]

Q: For `COc1cc(C(=O)OCC(=O)Nc2cccc(S(=O)(=O)N3CCOCC3)c2)ccc1OCC(C)C`, which Potency is on record?
A: inactive

Q: With `Cc1ccnc2nc(C(=O)Nc3ccc4c(c3)OCO4)nn12` as the compound, how does the Potency read?
A: inconclusive: 4.11 µM [activator, single point]

Q: Which Potency does the source give for `Cc1c(C)n(Cc2ccccc2)c2ccc(C(=O)NCCCN3CCOCC3)cc12` here?
A: inconclusive: 29.1 µM [activator, single point]

Q: For `Nc1nc(Cl)cc(N2CCC(c3cc(-c4ccc(Cl)cc4)n[nH]3)CC2)n1`, which Potency is on record?
A: active: 8.2 µM

Q: With `CC(C)C(C)NC(=O)COc1ccc([N+](=O)[O-])cc1Cl` (stereo not given) as the compound, how does the Potency read?
A: inconclusive: 9.2 µM [falling, partial curve]

Q: For `CCSc1nnc(-c2ccc(OC)cc2)o1`, which Potency is on record?
A: inconclusive: 0.92 µM [activator, full curve, poor fit]

Q: With `c1ccc2sc(NN=C3CCCC3)nc2c1` as the compound, how does the Potency read?
A: inconclusive: 5.17 µM [activator, partial curve]

Q: Which Potency does the source give for `COc1ccc(N=Nc2ccc(N)nc2N)cc1` here?
A: inconclusive: 18.4 µM [activator, partial curve]

Q: Which Potency does the source give for `C/C(=N\N1CCN(Cc2ccccc2)CC1)c1ccco1` here?
A: inconclusive: 14.6 µM [activator, partial curve, poor fit]
